Test results reported in article PMC5642548.
These are yes or no findings as the source states them, for the method shown. In cells and extracts the contact can be indirect.

By UniProt entry, the sequences of proteins in these tests, tags left out. Where a name states a change or a piece, a line headed by the entry shows the natural chain unless it says otherwise. Chains listed by the source or under a name are the forms on record and can include a tag or linker. Residues count along the entry.
dHD-TGIF1 (TGIF1 with the homeodomain deleted, 1-52:138-272), Flag-tagged (human (cDNA from HEK293T)) (Q15583, form named): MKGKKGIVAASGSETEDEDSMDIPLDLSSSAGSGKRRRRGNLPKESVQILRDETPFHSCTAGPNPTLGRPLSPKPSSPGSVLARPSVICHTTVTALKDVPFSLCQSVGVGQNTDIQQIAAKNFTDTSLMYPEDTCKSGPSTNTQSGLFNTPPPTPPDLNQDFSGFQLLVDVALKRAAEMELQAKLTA
UniProt P35222: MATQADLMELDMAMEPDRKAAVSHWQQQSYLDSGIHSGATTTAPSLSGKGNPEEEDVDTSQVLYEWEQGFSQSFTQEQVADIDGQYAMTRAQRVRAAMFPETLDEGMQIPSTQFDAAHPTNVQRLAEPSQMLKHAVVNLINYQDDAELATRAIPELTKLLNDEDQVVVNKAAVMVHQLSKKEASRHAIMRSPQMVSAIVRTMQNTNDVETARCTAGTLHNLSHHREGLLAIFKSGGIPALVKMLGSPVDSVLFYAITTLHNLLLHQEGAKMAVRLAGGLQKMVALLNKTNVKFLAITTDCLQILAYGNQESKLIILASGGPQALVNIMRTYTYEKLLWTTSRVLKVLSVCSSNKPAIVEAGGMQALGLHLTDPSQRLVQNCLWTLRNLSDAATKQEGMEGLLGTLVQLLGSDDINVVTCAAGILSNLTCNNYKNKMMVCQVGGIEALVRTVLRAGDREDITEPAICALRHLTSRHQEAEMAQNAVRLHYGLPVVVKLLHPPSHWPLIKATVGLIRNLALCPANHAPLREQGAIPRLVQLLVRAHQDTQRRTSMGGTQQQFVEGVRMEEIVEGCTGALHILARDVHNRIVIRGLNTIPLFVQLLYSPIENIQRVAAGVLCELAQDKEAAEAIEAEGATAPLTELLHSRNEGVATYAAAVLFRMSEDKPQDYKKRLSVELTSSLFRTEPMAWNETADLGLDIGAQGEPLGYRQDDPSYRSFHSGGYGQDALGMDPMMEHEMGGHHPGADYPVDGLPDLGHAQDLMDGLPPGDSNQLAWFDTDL

Biological target: dHD-TGIF1 (TGIF1 with the homeodomain deleted, 1-52:138-272), Flag-tagged (human (cDNA from HEK293T)) (UniProt Q15583)
Test: co-IP; HEK293FT cells co-transfected for 48 h; lysate in TNE buffer (20 mM Tris-HCl pH 7.4, 150 mM NaCl, 2 mM EDTA, 1 % Triton X-100); precipitated with anti-Flag antibody and protein A-Sepharose overnight at 4°C; anti-Myc immunoblotting

For β-catenin (from UniProt P35222 1-781), the binding was “no binding”.
